Test results taken from article doi:10.1101/2025.08.29.668156.

By UniProt entry, the sequences of proteins in these tests, tags left out.
UniProt P20339: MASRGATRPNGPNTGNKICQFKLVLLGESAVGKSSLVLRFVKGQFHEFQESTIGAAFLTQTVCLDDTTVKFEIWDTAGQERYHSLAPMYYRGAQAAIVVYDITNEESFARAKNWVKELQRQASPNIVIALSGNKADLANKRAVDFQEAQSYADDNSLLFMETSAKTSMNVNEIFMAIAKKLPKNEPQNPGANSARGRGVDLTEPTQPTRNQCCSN
UniProt P02545: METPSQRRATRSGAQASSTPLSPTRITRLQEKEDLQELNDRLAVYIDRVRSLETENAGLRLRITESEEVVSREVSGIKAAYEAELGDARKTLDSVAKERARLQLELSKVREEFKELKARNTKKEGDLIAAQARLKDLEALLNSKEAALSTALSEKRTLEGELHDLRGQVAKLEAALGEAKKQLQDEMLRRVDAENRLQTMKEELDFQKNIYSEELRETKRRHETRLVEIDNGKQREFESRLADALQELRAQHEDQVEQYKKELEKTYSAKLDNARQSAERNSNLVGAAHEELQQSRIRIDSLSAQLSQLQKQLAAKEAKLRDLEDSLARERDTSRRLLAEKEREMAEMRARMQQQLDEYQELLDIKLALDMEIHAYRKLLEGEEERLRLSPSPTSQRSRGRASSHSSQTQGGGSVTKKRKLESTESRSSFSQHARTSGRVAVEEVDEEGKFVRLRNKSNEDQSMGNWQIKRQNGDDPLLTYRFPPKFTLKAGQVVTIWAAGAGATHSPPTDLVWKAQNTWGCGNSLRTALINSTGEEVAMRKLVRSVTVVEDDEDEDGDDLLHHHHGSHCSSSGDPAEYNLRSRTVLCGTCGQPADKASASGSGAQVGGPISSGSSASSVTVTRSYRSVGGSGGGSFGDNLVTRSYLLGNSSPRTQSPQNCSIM
UniProt Q96SK2: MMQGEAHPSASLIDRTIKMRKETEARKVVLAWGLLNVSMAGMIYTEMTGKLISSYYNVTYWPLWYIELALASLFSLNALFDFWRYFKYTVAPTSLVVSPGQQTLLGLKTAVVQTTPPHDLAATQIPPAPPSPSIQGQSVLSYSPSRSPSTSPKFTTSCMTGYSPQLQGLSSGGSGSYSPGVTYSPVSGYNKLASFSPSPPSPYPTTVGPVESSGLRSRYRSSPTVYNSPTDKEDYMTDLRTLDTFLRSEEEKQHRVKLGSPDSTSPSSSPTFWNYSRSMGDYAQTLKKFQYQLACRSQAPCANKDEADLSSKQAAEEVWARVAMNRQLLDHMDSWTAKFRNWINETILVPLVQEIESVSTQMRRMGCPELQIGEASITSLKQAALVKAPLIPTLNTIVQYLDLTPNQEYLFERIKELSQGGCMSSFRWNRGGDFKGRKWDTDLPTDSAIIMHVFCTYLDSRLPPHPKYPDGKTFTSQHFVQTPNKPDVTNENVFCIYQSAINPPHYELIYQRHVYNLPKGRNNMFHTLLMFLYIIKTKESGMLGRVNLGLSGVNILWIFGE
UniProt Q96FL9: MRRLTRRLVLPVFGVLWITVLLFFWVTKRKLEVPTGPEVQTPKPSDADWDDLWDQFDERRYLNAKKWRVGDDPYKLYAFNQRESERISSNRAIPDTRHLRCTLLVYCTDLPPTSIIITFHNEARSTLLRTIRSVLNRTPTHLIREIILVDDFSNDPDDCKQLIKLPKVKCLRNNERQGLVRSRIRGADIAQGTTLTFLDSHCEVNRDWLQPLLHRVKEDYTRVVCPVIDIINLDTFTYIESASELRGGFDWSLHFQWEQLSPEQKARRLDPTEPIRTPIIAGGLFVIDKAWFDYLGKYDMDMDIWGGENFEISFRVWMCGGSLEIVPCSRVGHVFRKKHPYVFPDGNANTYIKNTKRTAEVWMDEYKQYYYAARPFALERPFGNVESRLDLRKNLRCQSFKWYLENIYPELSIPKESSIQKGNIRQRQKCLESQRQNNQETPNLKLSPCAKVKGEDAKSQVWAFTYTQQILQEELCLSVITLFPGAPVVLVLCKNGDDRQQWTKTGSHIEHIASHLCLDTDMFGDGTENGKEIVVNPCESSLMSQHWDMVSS
UniProt Q00610: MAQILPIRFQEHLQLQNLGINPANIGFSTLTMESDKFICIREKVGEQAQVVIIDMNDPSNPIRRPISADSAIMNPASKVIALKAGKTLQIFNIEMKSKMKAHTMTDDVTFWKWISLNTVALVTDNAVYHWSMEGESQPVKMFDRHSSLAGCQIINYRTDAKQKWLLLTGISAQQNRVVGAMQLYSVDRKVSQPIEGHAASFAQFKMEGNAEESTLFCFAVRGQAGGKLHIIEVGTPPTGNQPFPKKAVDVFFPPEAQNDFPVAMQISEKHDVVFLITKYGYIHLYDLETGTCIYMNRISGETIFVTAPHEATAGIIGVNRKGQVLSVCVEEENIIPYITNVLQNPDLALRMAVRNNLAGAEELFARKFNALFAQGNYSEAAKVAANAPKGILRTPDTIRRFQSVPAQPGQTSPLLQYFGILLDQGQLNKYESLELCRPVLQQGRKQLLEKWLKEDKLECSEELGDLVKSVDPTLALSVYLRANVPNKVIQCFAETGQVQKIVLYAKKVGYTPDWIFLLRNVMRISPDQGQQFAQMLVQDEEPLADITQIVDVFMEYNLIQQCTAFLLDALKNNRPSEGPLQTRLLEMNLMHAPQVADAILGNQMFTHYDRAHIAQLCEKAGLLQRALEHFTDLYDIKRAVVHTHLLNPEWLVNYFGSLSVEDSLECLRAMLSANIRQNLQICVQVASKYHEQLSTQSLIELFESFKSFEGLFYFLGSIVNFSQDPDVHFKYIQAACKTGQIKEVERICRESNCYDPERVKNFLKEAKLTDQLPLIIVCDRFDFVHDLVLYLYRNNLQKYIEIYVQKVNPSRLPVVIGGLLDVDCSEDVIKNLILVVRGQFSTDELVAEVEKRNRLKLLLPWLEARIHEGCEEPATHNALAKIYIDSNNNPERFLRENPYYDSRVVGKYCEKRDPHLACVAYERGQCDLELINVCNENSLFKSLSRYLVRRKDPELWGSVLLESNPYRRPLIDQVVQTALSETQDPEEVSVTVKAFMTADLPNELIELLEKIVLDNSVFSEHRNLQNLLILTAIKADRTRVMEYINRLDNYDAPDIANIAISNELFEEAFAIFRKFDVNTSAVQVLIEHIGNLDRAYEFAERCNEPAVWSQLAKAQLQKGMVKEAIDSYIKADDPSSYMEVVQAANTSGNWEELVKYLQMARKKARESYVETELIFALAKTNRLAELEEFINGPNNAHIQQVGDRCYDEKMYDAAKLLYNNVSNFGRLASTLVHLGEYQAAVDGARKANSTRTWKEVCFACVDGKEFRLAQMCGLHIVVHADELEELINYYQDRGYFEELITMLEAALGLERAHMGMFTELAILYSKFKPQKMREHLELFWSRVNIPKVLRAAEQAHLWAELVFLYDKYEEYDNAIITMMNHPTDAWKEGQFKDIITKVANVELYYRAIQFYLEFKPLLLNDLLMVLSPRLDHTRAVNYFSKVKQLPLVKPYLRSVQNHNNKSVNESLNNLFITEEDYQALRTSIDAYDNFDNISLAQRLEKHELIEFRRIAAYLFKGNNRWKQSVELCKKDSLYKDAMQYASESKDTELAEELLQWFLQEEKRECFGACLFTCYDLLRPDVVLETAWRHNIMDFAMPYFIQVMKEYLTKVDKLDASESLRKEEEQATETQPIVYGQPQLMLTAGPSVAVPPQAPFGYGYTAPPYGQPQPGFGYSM
UniProt Q9BWN1: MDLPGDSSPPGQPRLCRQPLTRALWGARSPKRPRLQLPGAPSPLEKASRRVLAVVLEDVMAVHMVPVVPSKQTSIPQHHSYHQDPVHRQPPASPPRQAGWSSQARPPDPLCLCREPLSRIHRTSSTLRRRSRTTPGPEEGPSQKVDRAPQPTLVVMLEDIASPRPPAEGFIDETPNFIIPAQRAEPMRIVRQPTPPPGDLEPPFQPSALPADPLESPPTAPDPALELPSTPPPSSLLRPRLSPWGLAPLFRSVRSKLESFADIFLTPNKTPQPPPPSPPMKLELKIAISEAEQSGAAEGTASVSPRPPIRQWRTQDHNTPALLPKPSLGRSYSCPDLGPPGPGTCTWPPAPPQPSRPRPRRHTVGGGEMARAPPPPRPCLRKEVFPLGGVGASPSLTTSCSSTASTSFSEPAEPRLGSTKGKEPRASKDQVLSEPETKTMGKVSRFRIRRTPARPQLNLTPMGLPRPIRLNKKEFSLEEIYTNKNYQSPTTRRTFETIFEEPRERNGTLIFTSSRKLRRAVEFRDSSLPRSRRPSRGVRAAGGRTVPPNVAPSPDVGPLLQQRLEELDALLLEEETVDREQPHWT
UniProt Q01968: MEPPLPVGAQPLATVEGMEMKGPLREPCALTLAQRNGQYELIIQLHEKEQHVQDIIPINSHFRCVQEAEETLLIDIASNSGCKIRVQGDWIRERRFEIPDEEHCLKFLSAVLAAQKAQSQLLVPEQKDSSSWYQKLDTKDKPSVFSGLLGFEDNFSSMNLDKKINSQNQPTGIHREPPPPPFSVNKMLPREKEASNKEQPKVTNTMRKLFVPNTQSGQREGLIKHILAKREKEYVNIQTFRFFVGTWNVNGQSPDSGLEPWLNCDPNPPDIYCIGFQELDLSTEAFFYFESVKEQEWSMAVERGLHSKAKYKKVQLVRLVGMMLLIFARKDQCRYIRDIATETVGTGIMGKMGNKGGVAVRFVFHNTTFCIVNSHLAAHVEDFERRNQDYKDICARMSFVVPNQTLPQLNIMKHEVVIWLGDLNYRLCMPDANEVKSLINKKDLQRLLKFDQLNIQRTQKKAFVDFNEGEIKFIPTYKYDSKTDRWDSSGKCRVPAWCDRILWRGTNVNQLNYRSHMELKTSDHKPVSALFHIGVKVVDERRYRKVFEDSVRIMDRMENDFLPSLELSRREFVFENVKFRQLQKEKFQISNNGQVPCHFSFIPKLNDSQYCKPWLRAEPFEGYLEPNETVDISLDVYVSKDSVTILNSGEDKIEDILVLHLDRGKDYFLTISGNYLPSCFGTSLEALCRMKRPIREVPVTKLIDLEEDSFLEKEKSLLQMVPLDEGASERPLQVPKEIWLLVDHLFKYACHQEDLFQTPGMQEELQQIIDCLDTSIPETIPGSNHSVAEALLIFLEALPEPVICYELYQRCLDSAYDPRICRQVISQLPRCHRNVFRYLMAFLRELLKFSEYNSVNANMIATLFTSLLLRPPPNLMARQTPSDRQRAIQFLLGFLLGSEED
UniProt Q10471: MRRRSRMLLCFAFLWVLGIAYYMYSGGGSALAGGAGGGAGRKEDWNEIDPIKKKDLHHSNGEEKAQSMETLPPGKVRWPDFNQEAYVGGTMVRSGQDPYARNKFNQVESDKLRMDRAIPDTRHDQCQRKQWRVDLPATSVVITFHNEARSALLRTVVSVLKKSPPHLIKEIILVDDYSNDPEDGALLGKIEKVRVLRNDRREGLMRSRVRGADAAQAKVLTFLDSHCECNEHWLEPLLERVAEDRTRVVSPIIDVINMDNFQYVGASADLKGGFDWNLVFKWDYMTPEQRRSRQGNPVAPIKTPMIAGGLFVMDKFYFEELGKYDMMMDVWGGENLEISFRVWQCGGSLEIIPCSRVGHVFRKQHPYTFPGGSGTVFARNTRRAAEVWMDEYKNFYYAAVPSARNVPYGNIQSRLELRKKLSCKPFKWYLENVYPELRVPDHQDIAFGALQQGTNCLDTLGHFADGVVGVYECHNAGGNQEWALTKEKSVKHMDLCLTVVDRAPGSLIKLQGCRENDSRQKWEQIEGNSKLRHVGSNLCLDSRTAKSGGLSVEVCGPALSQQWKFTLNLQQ
UniProt O94901: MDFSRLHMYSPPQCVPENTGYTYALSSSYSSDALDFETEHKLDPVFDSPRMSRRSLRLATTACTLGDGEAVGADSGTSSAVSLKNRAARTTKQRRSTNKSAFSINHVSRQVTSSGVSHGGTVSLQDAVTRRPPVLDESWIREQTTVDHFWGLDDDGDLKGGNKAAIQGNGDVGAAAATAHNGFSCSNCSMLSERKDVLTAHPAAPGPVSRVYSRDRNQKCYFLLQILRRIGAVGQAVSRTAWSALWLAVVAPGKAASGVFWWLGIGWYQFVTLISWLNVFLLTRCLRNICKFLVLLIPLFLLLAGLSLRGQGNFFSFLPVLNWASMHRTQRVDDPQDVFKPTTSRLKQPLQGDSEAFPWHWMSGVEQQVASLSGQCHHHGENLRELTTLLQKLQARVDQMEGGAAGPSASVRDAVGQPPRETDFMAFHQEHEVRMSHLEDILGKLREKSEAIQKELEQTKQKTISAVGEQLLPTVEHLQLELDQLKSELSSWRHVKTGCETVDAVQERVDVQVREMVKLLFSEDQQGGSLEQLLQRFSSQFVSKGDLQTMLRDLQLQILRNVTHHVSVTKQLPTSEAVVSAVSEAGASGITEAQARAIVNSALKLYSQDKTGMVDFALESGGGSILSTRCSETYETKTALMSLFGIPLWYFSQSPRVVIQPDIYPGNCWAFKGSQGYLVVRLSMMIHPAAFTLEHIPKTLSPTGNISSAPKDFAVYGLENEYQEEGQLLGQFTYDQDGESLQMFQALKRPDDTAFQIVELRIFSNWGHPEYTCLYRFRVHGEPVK

How the values were obtained:
Test in all cases: proximity labelling
[1] = target: T1, ST6GALNAC1 fused to ultraID (UniProt Q9NSC7)
T1 sequence: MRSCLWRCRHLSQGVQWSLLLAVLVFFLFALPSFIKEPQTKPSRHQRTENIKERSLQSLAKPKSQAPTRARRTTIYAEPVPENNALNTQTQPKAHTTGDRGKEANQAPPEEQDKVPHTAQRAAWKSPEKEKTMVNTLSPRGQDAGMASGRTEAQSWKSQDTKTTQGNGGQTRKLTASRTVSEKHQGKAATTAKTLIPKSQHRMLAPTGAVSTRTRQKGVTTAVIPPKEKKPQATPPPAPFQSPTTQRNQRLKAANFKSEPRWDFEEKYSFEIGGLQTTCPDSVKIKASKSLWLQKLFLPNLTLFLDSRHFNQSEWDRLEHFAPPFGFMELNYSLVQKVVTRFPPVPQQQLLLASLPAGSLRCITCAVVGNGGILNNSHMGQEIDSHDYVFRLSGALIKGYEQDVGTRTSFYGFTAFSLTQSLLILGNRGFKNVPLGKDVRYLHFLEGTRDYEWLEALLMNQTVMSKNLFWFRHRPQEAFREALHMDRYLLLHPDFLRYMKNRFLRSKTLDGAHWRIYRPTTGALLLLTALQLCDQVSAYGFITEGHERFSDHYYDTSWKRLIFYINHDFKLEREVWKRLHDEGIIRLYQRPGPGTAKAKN

miniTurbo-RAB5A [2] = target: miniTurbo-RAB5A (UniProt P20339)
ultraID-RAB5A [3] = target: ultraID-RAB5A (UniProt P20339)
[4] = target: LMNA N-terminally fused to AirID (UniProt P02545)
[5] = target: LMNA N-terminally fused to BASU (UniProt P02545)
[6] = target: LMNA N-terminally fused to BioID2 (UniProt P02545)
[7] = target: LMNA N-terminally fused to BirA* (UniProt P02545)
[8] = target: LMNA N-terminally fused to TurboID (UniProt P02545)
[9] = target: LMNA N-terminally fused to lbmicroID2 (UniProt P02545)
[10] = target: LMNA N-terminally fused to microID (UniProt P02545)
[11] = target: LMNA N-terminally fused to microID2 (UniProt P02545)
[12] = target: LMNA N-terminally fused to miniTurbo (UniProt P02545)
[13] = target: LMNA N-terminally fused to ultraID (UniProt P02545)
miniTurbo-RAB5A [14] = target: miniTurbo-RAB5A (UniProt P20339); remark: listed apart in the source
ultraID-RAB5A [15] = target: ultraID-RAB5A (UniProt P20339); remark: listed apart in the source

Measured: binding

MAN1A1 (from UniProt P33908 1-653)
binds: [1]

BLTP3B (from UniProt A0JNW5 1-1464)
binds: miniTurbo-RAB5A [2] | ultraID-RAB5A [3]

TMEM209 (from UniProt Q96SK2 1-561)
binds: [4] | [5] | [6] | [7] | [8] | [9] | [10] | [11] | [12] | [13]

DNAJA1 (from UniProt P31689 1-397)
binds: miniTurbo-RAB5A [2]

GALNT14 (from UniProt Q96FL9 1-552)
binds: [1]

CLTC (from UniProt Q00610 1-1675)
binds: miniTurbo-RAB5A [2] | ultraID-RAB5A [3]

PRR14 (from UniProt Q9BWN1 1-585)
binds: [4] | [5] | [6] | [7] | [8] | [9] | [10] | [11] | [12] | [13]

OCRL (from UniProt Q01968 1-901)
binds: miniTurbo-RAB5A [2] | ultraID-RAB5A [3]

GALNT2 (from UniProt Q10471 1-571)
binds: [1]

SUN1 (from UniProt O94901 1-785)
binds: [4] | [5] | [6] | [7] | [8] | [9] | [10] | [11] | [12] | [13]

VRK2A (from UniProt Q86Y07-1 1-508)
binds: [4] | [5] | [6] | [7] | [8] | [9] | [10] | [11] | [12] | [13]

B1: RAB13 (protein, UniProt P51153 1-203)
chain: MAKAYDHLFKLLLIGDSGVGKTCLIIRFAEDNFNNTYISTIGIDFKIRTVDIEGKKIKLQVWDTAGQERFKTITTAYYRGAMGIILVYDITDEKSFENIQNWMKSIKENASAGVERLLLGNKCDMEAKRKVQKEQADKLAREHGIRFFETSAKSSMNVDEAFSSLARDILLKSGGRRSGNGNKPPSTDLKTCDKKNTNKCSLG
binds: miniTurbo-RAB5A [14] | ultraID-RAB5A [15]

B2: YWHAQ (protein, UniProt P27348 1-245)
chain: MEKTELIQKAKLAEQAERYDDMATCMKAVTEQGAELSNEERNLLSVAYKNVVGGRRSAWRVISSIEQKTDTSDKKLQLIKDYREKVESELRSICTTVLELLDKYLIANATNPESKVFYLKMKGDYFRYLAEVACGDDRKQTIDNSQGAYQEAFDISKKEMQPTHPIRLGLALNFSVFYYEILNNPELACTLAKTAFDEAIAELDTLNEDSYKDSTLIMQLLRDNLTLWTSDSAGEECDAAEGAEN
binds: miniTurbo-RAB5A [14] | ultraID-RAB5A [15]

Where two headings read alike, the source gives them in different places. These are yes or no findings as the source states them, for the method shown. In cells and extracts the contact can be indirect. These calls come from enrichment with a bait or labelling near it, and not all partners need be listed. For part of these data: Tags and fused reporters may be left off the sequences shown.
